At least one structure is not confirmed: it was looked up by name or label, or the drawing left a doubt.
Tested on: ANPEP
Test: ANPEP expression by quantitative real-time RT-PCR in cells differentiating from human iPS cells to enterocyte-like cells
Assay type: cell-based
Conditions: compound added with BIO and DAPT, 5 days culture; versus control without the compounds; FIG. 2B
Procedure: The definitive endoderm cells generated from the human iPS cell line (Tic) by the method described in Example 1 above were further cultured for 15 days using the medium 3. During a period from day 4 to day 19 after the initiation of differentiation induction, BIO (5 μM) and DAPT (10 μM) were added to the culture system. Simultaneously with the addition of the BIO and the DAPT, the cells were further cultured for 5 days using the medium 3 supplemented with any one of phorbol-myristate-acetate (PMA), transforming growth factor β1 (TGEβ1), Wortmannin, Noggin, SB431542, Follistatin, EGF, R-spondin1, Pentagastrin, or Wnt3a (FIG. 2A and FIG. 3A).
With regard to the measurement of the enterocyte markers ANPEP and VILLIN, each of the enterocyte markers was measured by a quantitative real-time RT-PCR method using SYBR Green gene expression assays (APPLIED BIOSYSTEMS). […] Thus, high expressions of ANPEP and VILLIN were found when the cells were cultured in the system containing SB431542, EGF, or Wnt3a.
The quantitative real-time RT-PCR was performed by the following method. […] A quantitative real-time RT-PCR method using SYBR Green gene expression assays (APPLIED BIOSYSTEMS) was performed, and quantification was performed with STEPONEPLUS real-time PCR System (APPLIED BIOSYSTEMS).

Q: With COC[C@H]1OC(=O)c2coc3c2[C@@]1(C)C1=C(C3=O)[C@@H]2CCC(=O)[C@@]2(C)C[C@H]1OC(C)=O [Wortmannin] as the molecule, how does the “expression of ANPEP” value read?
A: high value

Reference: patent publication US10889805B2, “Intestinal epithelioid cells” (National Institutes of Biomedical Innovation, Health and …, priority 2015, dated 2021)
